# Library compounds against nucleic acid targets

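Compounds were printed on reactive glass slides in duplicate spots, a dye-labelled oligonucleotide was laid over them, and the fluorescence left after washing was read. For the PreQ1, TPP and SAM-II riboswitches the laboratory earlier reported (doi:10.1038/s41467-019-09493-3) 1 µM RNA, 2 h, and a rule that included a mean Z-score above 3 (spot signal-to-noise against the whole library), a score well above that on a control array, and duplicate spots agreeing (coefficient of variation under 100). The data file gives only the calls; its cut-offs may differ, and compounds hitting several targets are kept. These are primary screening calls, not affinities; a compound without a hit may have attached poorly or may still bind in solution.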
“Y” means called a hit, “N” means screened and not called a hit.
The compounds are a random part of those screened.
A dash means that no call is listed here.

Targets, with sequences 5′ to 3′:
SAM-II: SAM-II riboswitch RNA pseudoknot, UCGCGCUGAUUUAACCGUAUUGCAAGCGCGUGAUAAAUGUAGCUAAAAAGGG. About 21,000 compounds screened, about 200 hits.
PreQ1: PreQ1 riboswitch RNA pseudoknot, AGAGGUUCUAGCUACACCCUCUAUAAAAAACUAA. From B. subtilis. About 24,000 compounds screened, about 170 hits.
TPP: TPP riboswitch RNA three-way junction, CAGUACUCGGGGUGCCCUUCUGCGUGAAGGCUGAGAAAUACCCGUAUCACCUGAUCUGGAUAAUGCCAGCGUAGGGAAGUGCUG. About 24,000 compounds screened, about 160 hits.

structure	SAM-II	PreQ1	TPP
CCCOC(=O)c1ccc(Nc2nc(C(=O)OCC)nc3ccccc23)cc1	N	N	N
Cc1cnn(CCCn2nc(C3CCNCC3)n(-c3ccccc3)c2=O)c1	N	N	N
COCC1=C(C(=O)OC)C(c2cccc3ccccc23)C(C#N)=C(N)O1 (stereo unspecified)	N	N	N
Nc1nc(CCNC(=O)CC(c2ccccc2)c2ccc3c(c2)OCO3)n[nH]1 (stereo unspecified)	N	N	N
O=[N+]([O-])c1ccc(C2OC(c3ccc(Cl)cc3)OCC2O)cc1 (stereo unspecified)	N	N	N
CCCCN(Cc1cccnc1)C(=O)c1cnc(N)nc1-c1ccccc1	N	N	N
Cc1ccc(CN2CCNCC2)cc1NC(=O)CNc1ccc(F)c(F)c1	N	N	N
CC1(C)CC(CCN)(c2ccc(F)cc2)CCO1.Cl (stereo unspecified)	N	N	N
Clc1ccc(-c2nc3sccn3c2C=NOCc2ccc(Cl)c(Cl)c2)cc1	N	N	N
Cc1ccc(S(=O)(=O)c2nc(-c3ccc(Cl)cc3)oc2NC2CC2)cc1	-	N	N
Nc1nnc(CNC(=O)Nc2ccc(C(=O)NCC3CCCO3)cc2)s1 (stereo unspecified)	N	N	N
COc1cc2[nH]c(Nc3ccc(Cl)cc3)c([N+](=O)[O-])c2cc1OC	N	N	N
O=C1CC(c2ccco2)Cc2nc(NCC3CCCO3)ncc21 (stereo unspecified)	N	N	N
Cc1ccc2ncnc(NC(CO)C(=O)O)c2c1.Cl (stereo unspecified)	N	N	N
COc1cc(-c2nc3ccccn3c2N)ccc1O	N	N	N
CC(=O)Oc1ccc(OC(C)=O)c2c1CC(C)=C(C)C2	N	N	N
Cc1cc(S(=O)(=O)[C@H]2CS(=O)(=O)C[C@@H]2NCc2cccnc2)ccc1F	-	N	N
CO[C@@H]1c2ccccc2C2(CCN(Cc3cc(C(C)(C)C)[nH]n3)CC2)[C@H]1O	N	N	N
Cc1cc(Nc2cccc3c2OCCO3)n2ncnc2n1	N	N	N
COC1=C(OC)C(=O)C(CC=C(C)CCC=C(C)CCC=C(C)CCC=C(C)CCC=C(C)CCC=C(C)CCC=C(C)CCC=C(C)CCC=C(C)CCC=C(C)C)=C(C)C1=O	N	N	N
CCN(Cc1ccc(CO)o1)CC1CCOCC1	N	N	N
O=c1cccc2n1C[C@@H]1CNC[C@H]2C1	N	N	N
C(CCC1CCCO1)CNC1CSCCSC1 (stereo unspecified)	N	N	N
CC(C)(C)C1=NN=C2c3ccccc3C(=O)C21 (stereo unspecified)	N	N	N
Cc1ccccc1NC1SC(=O)N(Cc2ccccc2)C1=O (stereo unspecified)	N	N	N
COc1cccc([C@@H]2C[C@H](c3cccc(C)c3)n3nc(N)nc3N2)c1	N	N	N
CC(=O)[C@H]1CC[C@H]2[C@@H]3CCC4=CC(=O)CC[C@]4(C)[C@]3(F)[C@@H](O)C[C@]12C	N	N	N
N#Cc1cc(C#N)c(SCC(=O)NCc2ccc(F)cc2)nc1N	N	N	N
FC(F)(F)c1cccc(-c2ccc(CNCCN3CCOCC3)o2)c1	-	N	N
Cc1ccc(-c2nc3cccc(C)n3c2Nc2ccccc2)o1	N	N	N
CCCC1Cc2c(sc(N)c2C#N)CO1 (stereo unspecified)	N	N	N
CCC(c1ccccn1)N(C)C[C@H]1CC[C@@H](N)CC1 (stereo partly specified)	N	N	N
Oc1ccc(C(O)Cn2cc(-c3cc(CN4CCCC4)cs3)nn2)cc1 (stereo unspecified)	N	N	N
O=C(CN1CC(c2ccccc2)CC1=O)NC1(CO)CCCC1 (stereo unspecified)	N	N	N
CCn1c(Cn2cncn2)nnc1C1CCN(C[C@H]2[C@@H]3CNC[C@@H]32)CC1	N	N	N
CSc1ccc(Cn2nnc(C(=O)NCc3ccccc3)c2N)cc1	N	N	N
CCC1CN(C(=O)c2ccc(SCCO)cc2)CCN1C(C)C (stereo unspecified)	N	N	N
CCOCCCNc1ncnc2c1nc1n2CCCC1	-	N	N
CNC(=O)CCN(C)C(=O)C(O)c1ccc(C(F)(F)F)cc1 (stereo unspecified)	N	N	N
CCCC(O)c1nc2ccccc2n1Cc1ccc(F)cc1 (stereo unspecified)	-	N	N
CC(C)NCC(O)COc1ccc(COCCOC(C)C)cc1 (stereo unspecified)	N	N	N
CC1(C)CC(=O)C2=C(C1)OC(N)=C(C#N)C2c1ccc(N2CCCC2)cc1 (stereo unspecified)	N	N	N
N#CC1=C(N)OC2=C(C(=O)CCC2)C1C1CCCCC1 (stereo unspecified)	N	N	N
O=C1CC(NCc2ccccc2)C(=O)N1c1ccccc1 (stereo unspecified)	N	N	N
c1csc(CNCCc2cn3ccccc3n2)c1	-	N	N
Cc1ccc2cc(-c3noc(C)n3)c(Nc3ccc(F)cc3)nc2c1	-	Y	N
Nc1nonc1-c1nc2ccccc2n1CC(=O)N1CCCCC1	N	N	N
CCNC(=O)c1sc(N2CCC(C)CC2)nc1N	N	N	N
CCC(C)c1ccc(OCc2nnc(N)s2)cc1 (stereo unspecified)	N	N	N
Cc1nnc(NS(=O)(=O)c2ccc(N)cc2)s1	N	N	N
Cn1c(CN2CC[C@@H](NC(=O)c3cnccn3)[C@H](O)C2)cc2ccccc21	N	N	N
O=C(C1CC1)N1CCc2cc(S(=O)(=O)N(CCO)Cc3ccccc3)ccc21	N	N	N
COc1ccc(NC2=CC(=O)CC(C)(C)C2)c(OC)c1	N	N	N
Cc1[nH]c2ccccc2c1CC(=O)N1C[C@H](O)[C@@H](N2CCN(C)CC2)C1	N	N	N
Nc1nc(COc2ccccc2Cl)nc(N2CCOCC2)n1	N	N	N
CCOC(=O)c1ccc(Nc2nc3nonc3nc2N2CCC(Cc3ccccc3)CC2)cc1	N	N	N
COc1ccc(C(=O)c2sc3nc4c(c(-c5ccncc5)c3c2N)CCCC4)cc1	N	N	N
NCC(=O)N1CCCC(CCc2ccccc2C(F)(F)F)C1 (stereo unspecified)	Y	N	Y
COc1ccc([C@H]2C[C@@H](c3ccccc3Cl)Nc3nc(N)nn32)cc1OC	N	N	N
c1cc(-c2cscn2)cc(-n2ccnc2-c2cn(C3CCNCC3)nn2)c1	N	N	N
CCSc1ccc(C(=O)N2C[C@@H](CN3CCCCCC3)[C@@H](CO)C2)s1	N	N	N
CCC(C)Nc1cc(C)nc2cc(-c3ccc(OC)c(OC)c3)nn12 (stereo unspecified)	-	N	N
Cc1ccc(NC(=O)Cn2nnc(C(=O)Nc3cc(C)ccc3C)c2N)cc1	N	N	N
Cc1ccccc1Nc1nc(-c2c(C)nc3ncccn23)cs1	N	N	N
O=C(Cc1ccc(CO)cc1)N1CCOC(C(F)(F)F)C1 (stereo unspecified)	N	N	N
COc1ccc(NC2CCCN(C(=O)CCCS(N)(=O)=O)C2)cc1 (stereo unspecified)	N	N	N
COc1cccc(CNCc2ccccc2C(F)(F)F)c1OC	N	N	N
O=C(NC1CCC1)c1ccc(S(=O)(=O)N[C@@H]2CCCNC2)cc1	N	N	N
O=C(CF)N(O)c1ccc(/C=C/c2ccccc2)cc1	N	N	N
Cc1nnc2c3ccccc3nc(NC3CCCCC3)n12	-	N	N
CCc1nc2ccccc2n1C(CC)C(=O)NCc1n[nH]c(N)n1 (stereo unspecified)	N	N	N
CCn1c(SCCO)nc2c(c1=O)C1(CCCC1)Cc1ccccc1-2	-	N	N
COCCc1nc(C(O)CCSC)n(-c2cccc(F)c2)n1 (stereo unspecified)	N	N	N
C=CCNc1ncnc2sc(SC)nc12	N	N	N
COc1ccc(CN2CCC(N3CCN(CCO)CC3)CC2)cc1OCc1ccccc1	N	N	N

Source: the ROBIN nucleic acid binder screens (doi:10.1002/anie.202211358).